What all share (assay): co-IP
For assay [1], the target named is T1, Nrd1 (S. cerevisiae (endogenous in yeast cells)) (UniProt P53617).
T1 sequence: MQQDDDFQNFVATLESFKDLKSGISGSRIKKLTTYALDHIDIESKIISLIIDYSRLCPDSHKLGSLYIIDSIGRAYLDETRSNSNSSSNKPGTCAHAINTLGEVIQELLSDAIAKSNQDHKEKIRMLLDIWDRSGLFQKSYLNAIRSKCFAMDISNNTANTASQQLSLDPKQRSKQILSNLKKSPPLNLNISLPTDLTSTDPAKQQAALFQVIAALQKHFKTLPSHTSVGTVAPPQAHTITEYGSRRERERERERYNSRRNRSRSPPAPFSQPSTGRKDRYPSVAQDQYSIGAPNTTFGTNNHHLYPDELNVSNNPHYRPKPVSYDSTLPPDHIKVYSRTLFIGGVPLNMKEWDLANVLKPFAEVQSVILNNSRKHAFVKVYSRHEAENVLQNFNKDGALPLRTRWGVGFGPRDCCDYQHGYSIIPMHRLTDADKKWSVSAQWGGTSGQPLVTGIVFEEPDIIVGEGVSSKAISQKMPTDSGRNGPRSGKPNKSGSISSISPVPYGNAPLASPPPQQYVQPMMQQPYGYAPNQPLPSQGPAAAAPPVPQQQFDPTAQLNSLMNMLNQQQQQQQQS

Chains of the proteins cited; added tags and fusions are not shown.
UniProt Q00416: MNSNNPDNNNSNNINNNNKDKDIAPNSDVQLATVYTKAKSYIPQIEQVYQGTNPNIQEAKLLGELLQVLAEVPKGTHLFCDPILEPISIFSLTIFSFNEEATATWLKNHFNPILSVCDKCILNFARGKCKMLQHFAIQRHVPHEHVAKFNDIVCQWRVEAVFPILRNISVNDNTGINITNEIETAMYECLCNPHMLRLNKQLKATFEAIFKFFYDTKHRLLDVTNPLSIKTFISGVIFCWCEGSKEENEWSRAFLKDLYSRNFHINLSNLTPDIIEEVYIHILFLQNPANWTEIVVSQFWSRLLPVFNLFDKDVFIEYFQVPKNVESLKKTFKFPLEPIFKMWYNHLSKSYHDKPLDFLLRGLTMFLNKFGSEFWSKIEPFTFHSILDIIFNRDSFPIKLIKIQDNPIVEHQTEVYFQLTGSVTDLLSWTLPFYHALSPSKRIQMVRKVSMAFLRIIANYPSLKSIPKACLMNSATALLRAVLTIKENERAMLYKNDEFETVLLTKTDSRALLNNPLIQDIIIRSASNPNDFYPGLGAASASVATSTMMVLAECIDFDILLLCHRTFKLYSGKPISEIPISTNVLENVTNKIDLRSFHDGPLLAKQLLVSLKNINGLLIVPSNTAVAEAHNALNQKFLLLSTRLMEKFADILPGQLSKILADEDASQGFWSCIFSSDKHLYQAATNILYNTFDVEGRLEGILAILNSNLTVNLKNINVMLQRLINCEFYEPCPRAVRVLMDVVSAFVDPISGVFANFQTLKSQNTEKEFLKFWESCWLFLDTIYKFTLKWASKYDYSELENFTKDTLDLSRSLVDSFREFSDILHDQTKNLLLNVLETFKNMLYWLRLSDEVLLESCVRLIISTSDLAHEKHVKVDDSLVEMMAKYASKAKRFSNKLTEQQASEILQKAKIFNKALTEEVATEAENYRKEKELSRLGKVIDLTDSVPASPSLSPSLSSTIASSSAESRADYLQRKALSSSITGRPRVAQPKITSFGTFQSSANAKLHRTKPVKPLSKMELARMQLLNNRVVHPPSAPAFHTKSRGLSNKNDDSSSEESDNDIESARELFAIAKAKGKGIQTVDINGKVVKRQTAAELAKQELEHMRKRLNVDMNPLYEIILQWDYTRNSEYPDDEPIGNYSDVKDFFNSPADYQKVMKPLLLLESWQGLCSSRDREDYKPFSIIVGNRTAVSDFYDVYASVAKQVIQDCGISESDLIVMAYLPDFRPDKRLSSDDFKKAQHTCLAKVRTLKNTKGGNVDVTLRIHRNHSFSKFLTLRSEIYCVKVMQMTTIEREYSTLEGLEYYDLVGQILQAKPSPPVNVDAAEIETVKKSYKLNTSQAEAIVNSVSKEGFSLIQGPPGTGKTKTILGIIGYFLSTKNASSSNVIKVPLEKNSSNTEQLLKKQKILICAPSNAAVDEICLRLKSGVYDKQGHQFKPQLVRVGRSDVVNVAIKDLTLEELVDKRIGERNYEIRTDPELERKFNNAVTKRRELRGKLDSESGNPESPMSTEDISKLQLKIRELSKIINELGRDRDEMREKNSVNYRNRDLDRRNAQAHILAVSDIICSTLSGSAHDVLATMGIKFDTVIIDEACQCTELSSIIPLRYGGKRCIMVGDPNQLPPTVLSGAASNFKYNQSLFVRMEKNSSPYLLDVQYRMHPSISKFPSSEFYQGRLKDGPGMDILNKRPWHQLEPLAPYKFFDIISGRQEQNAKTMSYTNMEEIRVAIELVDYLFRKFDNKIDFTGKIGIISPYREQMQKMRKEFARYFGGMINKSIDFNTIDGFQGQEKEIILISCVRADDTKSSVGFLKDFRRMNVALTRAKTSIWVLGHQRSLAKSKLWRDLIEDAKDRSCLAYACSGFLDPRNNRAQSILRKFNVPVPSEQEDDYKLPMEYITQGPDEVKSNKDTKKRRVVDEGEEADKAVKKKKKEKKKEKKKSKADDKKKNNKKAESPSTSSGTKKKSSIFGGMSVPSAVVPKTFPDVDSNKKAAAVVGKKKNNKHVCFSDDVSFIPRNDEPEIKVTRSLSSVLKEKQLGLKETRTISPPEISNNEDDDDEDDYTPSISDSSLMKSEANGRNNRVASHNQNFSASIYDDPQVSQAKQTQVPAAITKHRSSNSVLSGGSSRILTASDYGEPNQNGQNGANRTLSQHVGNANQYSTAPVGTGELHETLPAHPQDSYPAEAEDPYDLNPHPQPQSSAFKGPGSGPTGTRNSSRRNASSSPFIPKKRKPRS

In assay [2] the target is T2, Nab3 (wildtype) (S. cerevisiae) (UniProt P38996).
T2 sequence: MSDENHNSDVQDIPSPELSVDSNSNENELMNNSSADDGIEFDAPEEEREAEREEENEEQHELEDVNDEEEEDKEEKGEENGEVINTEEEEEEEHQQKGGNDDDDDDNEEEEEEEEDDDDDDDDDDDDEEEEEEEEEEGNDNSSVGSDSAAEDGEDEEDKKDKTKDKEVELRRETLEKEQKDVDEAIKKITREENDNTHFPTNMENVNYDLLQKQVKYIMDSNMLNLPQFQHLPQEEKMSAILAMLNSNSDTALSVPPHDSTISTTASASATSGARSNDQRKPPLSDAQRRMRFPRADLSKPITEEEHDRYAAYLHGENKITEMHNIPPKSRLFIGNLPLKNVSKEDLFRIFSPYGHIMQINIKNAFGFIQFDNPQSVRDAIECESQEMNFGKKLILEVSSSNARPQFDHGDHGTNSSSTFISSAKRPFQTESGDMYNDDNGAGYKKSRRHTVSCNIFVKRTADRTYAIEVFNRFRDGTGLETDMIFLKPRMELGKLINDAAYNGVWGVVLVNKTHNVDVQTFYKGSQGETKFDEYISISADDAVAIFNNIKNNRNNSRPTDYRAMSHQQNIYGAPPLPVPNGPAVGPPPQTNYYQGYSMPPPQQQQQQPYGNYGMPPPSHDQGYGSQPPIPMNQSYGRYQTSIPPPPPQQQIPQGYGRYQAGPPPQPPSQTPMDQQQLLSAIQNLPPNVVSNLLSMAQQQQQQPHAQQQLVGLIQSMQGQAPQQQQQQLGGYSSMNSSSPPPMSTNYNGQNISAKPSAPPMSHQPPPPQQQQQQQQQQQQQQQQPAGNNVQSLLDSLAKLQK

Assay [3] has as its target T3, Nab3-K363R (S. cerevisiae) (UniProt P38996).
T3 sequence: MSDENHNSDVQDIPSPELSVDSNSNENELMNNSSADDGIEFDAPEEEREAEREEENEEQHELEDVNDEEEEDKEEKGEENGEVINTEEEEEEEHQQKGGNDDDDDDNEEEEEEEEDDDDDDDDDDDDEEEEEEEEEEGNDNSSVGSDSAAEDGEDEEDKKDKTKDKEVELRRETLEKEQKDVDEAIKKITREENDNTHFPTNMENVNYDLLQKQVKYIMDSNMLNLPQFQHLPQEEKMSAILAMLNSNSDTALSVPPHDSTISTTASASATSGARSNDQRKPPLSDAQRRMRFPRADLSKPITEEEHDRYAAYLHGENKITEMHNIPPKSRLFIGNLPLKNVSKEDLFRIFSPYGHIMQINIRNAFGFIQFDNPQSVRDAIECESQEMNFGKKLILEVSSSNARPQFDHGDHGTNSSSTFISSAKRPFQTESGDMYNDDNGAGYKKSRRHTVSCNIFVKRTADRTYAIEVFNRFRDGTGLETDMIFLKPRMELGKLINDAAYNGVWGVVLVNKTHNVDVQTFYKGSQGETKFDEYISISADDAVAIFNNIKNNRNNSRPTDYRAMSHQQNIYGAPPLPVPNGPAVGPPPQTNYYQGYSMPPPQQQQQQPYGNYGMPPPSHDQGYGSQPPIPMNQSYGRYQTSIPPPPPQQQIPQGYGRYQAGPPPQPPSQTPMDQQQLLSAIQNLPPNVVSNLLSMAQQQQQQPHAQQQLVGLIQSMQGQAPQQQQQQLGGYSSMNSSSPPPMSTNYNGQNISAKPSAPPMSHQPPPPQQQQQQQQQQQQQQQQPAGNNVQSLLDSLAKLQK

No constants are given. Whether binding was seen depends on the method and setting. Binding seen in cells or lysates may run through a third protein. Some binding calls cover weakened binding; strength is not graded here.

As for Sen1 (from UniProt Q00416 1-2231), the binding entry in assay [1] was “binds”.

B1: Nab3 (wildtype) (protein, UniProt P38996 1-802)
chain: MSDENHNSDVQDIPSPELSVDSNSNENELMNNSSADDGIEFDAPEEEREAEREEENEEQHELEDVNDEEEEDKEEKGEENGEVINTEEEEEEEHQQKGGNDDDDDDNEEEEEEEEDDDDDDDDDDDDEEEEEEEEEEGNDNSSVGSDSAAEDGEDEEDKKDKTKDKEVELRRETLEKEQKDVDEAIKKITREENDNTHFPTNMENVNYDLLQKQVKYIMDSNMLNLPQFQHLPQEEKMSAILAMLNSNSDTALSVPPHDSTISTTASASATSGARSNDQRKPPLSDAQRRMRFPRADLSKPITEEEHDRYAAYLHGENKITEMHNIPPKSRLFIGNLPLKNVSKEDLFRIFSPYGHIMQINIKNAFGFIQFDNPQSVRDAIECESQEMNFGKKLILEVSSSNARPQFDHGDHGTNSSSTFISSAKRPFQTESGDMYNDDNGAGYKKSRRHTVSCNIFVKRTADRTYAIEVFNRFRDGTGLETDMIFLKPRMELGKLINDAAYNGVWGVVLVNKTHNVDVQTFYKGSQGETKFDEYISISADDAVAIFNNIKNNRNNSRPTDYRAMSHQQNIYGAPPLPVPNGPAVGPPPQTNYYQGYSMPPPQQQQQQPYGNYGMPPPSHDQGYGSQPPIPMNQSYGRYQTSIPPPPPQQQIPQGYGRYQAGPPPQPPSQTPMDQQQLLSAIQNLPPNVVSNLLSMAQQQQQQPHAQQQLVGLIQSMQGQAPQQQQQQLGGYSSMNSSSPPPMSTNYNGQNISAKPSAPPMSHQPPPPQQQQQQQQQQQQQQQQPAGNNVQSLLDSLAKLQK
In the case of B1, the binding entry in assay [1] is given as “binds”.

B2: Nab3-K363R (protein, UniProt P38996 1-802)
chain: MSDENHNSDVQDIPSPELSVDSNSNENELMNNSSADDGIEFDAPEEEREAEREEENEEQHELEDVNDEEEEDKEEKGEENGEVINTEEEEEEEHQQKGGNDDDDDDNEEEEEEEEDDDDDDDDDDDDEEEEEEEEEEGNDNSSVGSDSAAEDGEDEEDKKDKTKDKEVELRRETLEKEQKDVDEAIKKITREENDNTHFPTNMENVNYDLLQKQVKYIMDSNMLNLPQFQHLPQEEKMSAILAMLNSNSDTALSVPPHDSTISTTASASATSGARSNDQRKPPLSDAQRRMRFPRADLSKPITEEEHDRYAAYLHGENKITEMHNIPPKSRLFIGNLPLKNVSKEDLFRIFSPYGHIMQINIRNAFGFIQFDNPQSVRDAIECESQEMNFGKKLILEVSSSNARPQFDHGDHGTNSSSTFISSAKRPFQTESGDMYNDDNGAGYKKSRRHTVSCNIFVKRTADRTYAIEVFNRFRDGTGLETDMIFLKPRMELGKLINDAAYNGVWGVVLVNKTHNVDVQTFYKGSQGETKFDEYISISADDAVAIFNNIKNNRNNSRPTDYRAMSHQQNIYGAPPLPVPNGPAVGPPPQTNYYQGYSMPPPQQQQQQPYGNYGMPPPSHDQGYGSQPPIPMNQSYGRYQTSIPPPPPQQQIPQGYGRYQAGPPPQPPSQTPMDQQQLLSAIQNLPPNVVSNLLSMAQQQQQQPHAQQQLVGLIQSMQGQAPQQQQQQLGGYSSMNSSSPPPMSTNYNGQNISAKPSAPPMSHQPPPPQQQQQQQQQQQQQQQQPAGNNVQSLLDSLAKLQK
For B2, the binding result in assay [1] is “binds”.

B3: Nrd1 (protein, UniProt P53617 1-575)
chain: MQQDDDFQNFVATLESFKDLKSGISGSRIKKLTTYALDHIDIESKIISLIIDYSRLCPDSHKLGSLYIIDSIGRAYLDETRSNSNSSSNKPGTCAHAINTLGEVIQELLSDAIAKSNQDHKEKIRMLLDIWDRSGLFQKSYLNAIRSKCFAMDISNNTANTASQQLSLDPKQRSKQILSNLKKSPPLNLNISLPTDLTSTDPAKQQAALFQVIAALQKHFKTLPSHTSVGTVAPPQAHTITEYGSRRERERERERYNSRRNRSRSPPAPFSQPSTGRKDRYPSVAQDQYSIGAPNTTFGTNNHHLYPDELNVSNNPHYRPKPVSYDSTLPPDHIKVYSRTLFIGGVPLNMKEWDLANVLKPFAEVQSVILNNSRKHAFVKVYSRHEAENVLQNFNKDGALPLRTRWGVGFGPRDCCDYQHGYSIIPMHRLTDADKKWSVSAQWGGTSGQPLVTGIVFEEPDIIVGEGVSSKAISQKMPTDSGRNGPRSGKPNKSGSISSISPVPYGNAPLASPPPQQYVQPMMQQPYGYAPNQPLPSQGPAAAAPPVPQQQFDPTAQLNSLMNMLNQQQQQQQQS
B3: the binding entry in assay [2] and in assay [3] was “binds” throughout.

These data come from doi:10.1101/592923.
